PubChem BioAssay AID2685 (National Center for Advancing Translational Sciences (NCATS), 2010)
Among all 320,000 compounds or so, about 2,100 (0.66%) were called active. The inconclusive results got no clear call from the source; some entries with a clear call stand among them for comparison. The call rests on the fitted dose curve; in most records, active means well fitted inhibition curve with a large enough effect in the signal ratio, with a control signal flat (not every such curve was filed as active); inconclusive means small, poorly fitted or top-dose-only effect, or effect the other way, or a change in a side signal; inactive means flat fitted curve, though single readings scatter; the % refers to the signal ratio. A potency beside an inconclusive call is a rough fit, not a confirmed value.

Test: qHTS Assay for Lipid Storage Modulators in Drosophila S3 Cells
Conditions: BODIPY lipid droplet fluorescence, 18-24 h, cells fed with added oleic acid; lipid storage change, negative = inhibition: at 46.1 µM (top of the series) unless noted
Summary of the method: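 Drosophila S3 cells got compounds at several concentrations plus oleic acid (400 uM solution). Laser-scanning cytometry with 488 nm excitation read lipid droplets at 500-530 nm and cells at 575-640 nm. Percent activity was relative to 20 uM Triacsin C.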
On the % scale 0 is the no-effect control and ±100 the full control effect; potency means the concentration at half of the fitted maximal effect.

Compound	lipid storage change, negative = inhibition	Potency
CC(=O)Nc1ccc(S(=O)(=O)NC(CC(=O)NCCCN2CCOCC2)C(C)C)cc1 (centres undefined)	inconclusive: 12.7%	–
CCn1cc(C(=O)NCc2ccncc2)c(=O)c2cc(F)c(N3CCN(C(=O)c4ccco4)CC3)cc21	inconclusive: -19.2%	–
Cc1cc(C)c(NC(=O)C2CCCO2)c(C)c1NC(=O)C1CCCO1 (centres undefined)	–	inconclusive: 29.1 µM [falling, single point]
Cc1cc(-c2csc3ncnc(N4CCN(C)CC4)c23)cc(C)c1C	–	inconclusive: 23.1 µM [activator, single point]
CC(=O)NC(CCS(C)(=O)=O)C(=O)Nc1ccccc1C (centres undefined)	inconclusive: -23.6%	–
CN(C)N=Nc1ccc(-c2cn(Cc3ccccc3)cn2)cc1	inconclusive: 21.7%	–
CCOC(=O)/C(C#N)=C/c1ccc(OC)c(OC)c1	inconclusive: -3.04%	–
O=C(Cn1nc(-c2ccco2)ccc1=O)Nc1cc(C(F)(F)F)ccc1Cl	inconclusive: 28.8%	–
COc1ccc(CCN2CC(C(=O)Nc3ccc(S(C)(=O)=O)cc3)CC2=O)cc1OC (centres undefined)	–	inconclusive: 10.3 µM [activator, partial curve, poor fit]
CC1CCCC(NC(=O)COC(=O)Cc2c[nH]c3ccccc23)C1C (centres undefined)	inconclusive: -24.5%	–
Cc1ccc(C(=O)N2CC3(C(C)C)CN(C(=O)c4ccc(C)cc4)CC(C(C)C)(C2)C3=O)cc1	inconclusive: 9.21%	–
CCCn1c(Nc2ccc(Cl)cc2)nc2ccccc21	inconclusive: 31.4%	–
O=C(O)c1nccnc1C(=O)NCCc1c[nH]c2ccccc12	–	inconclusive: 29.1 µM [rising, single point]
COc1ccc(S(=O)(=O)N2c3ccccc3OCC2CC(=O)O)cc1 (centres undefined)	–	inconclusive: 5.17 µM [falling, full curve]
Cc1csc2nc(O)c(C(=O)NCCC3=CCCCC3)c(=O)n12	inconclusive: 14.7%	–
COc1ccc(CN(C)C(=O)CCl)cc1	–	inconclusive: 0.731 µM [cytotoxic, partial curve, poor fit]
CC(C#N)Sc1ccc(S(=O)(=O)N2CCCC2)cn1 (centres undefined)	–	inconclusive: 6.51 µM [cytotoxic, single point]
CC(C)CCNCC(O)CON=C1c2ccccc2-c2ccccc21 (centres undefined)	inconclusive: -64.7%	–
CNC(=O)CCc1nc(-c2ccc(C(C)(C)C)cc2)no1	inconclusive: 53.3%	–
O=Cc1ccc2c(c1)CCN2Cc1ccccc1	inconclusive: 17.9%	–
COCCCn1c(SCC(=O)NC2CCS(=O)(=O)C2)nnc1-c1ccc(Cl)cc1 (centres undefined)	inconclusive: -18.7%	–
O=C1CCNCCN1[C@H](CO)Cc1ccccc1	inconclusive: 129%	–
CCOc1ccc(NS(=O)(=O)c2cc(C(=O)N3CCC3)ccc2Cl)cc1	inconclusive: 44.5%	–
CCN(CC)S(=O)(=O)c1cccc(NC(=O)c2cc3ccccc3o2)c1	inconclusive: 19.6%	–
CCCS(=O)(=O)N1CCCC(C(=O)NCc2cccnc2)C1 (centres undefined)	inconclusive: 73.3%	–
Nc1ccc(S(=O)(=O)NC2(C(F)(F)F)NC(=O)N(Cc3ccccc3)C2=O)cc1 (centres undefined)	–	inconclusive: 0.231 µM [falling, full curve, poor fit]
COc1ccc(CN2C(=O)c3cccnc3C2=O)cc1S(=O)(=O)N1CCCC(C)C1 (centres undefined)	–	inconclusive: 2.31 µM [falling, partial curve, poor fit]

Compound	lipid storage change, negative = inhibition	Potency
COc1ccccc1-c1sc2ccccc2c1-c1ccc(C(C)=O)cc1	inconclusive: 27.7%	–
OC(CNc1nc(-c2cccnc2)nc2ccccc12)c1ccccc1 (centres undefined)	inconclusive: -84.4%	–
Cc1ccc(-c2noc(CCC(=O)Nc3ccc4c(c3)OCO4)n2)cc1	inconclusive: 17.1%	–
O=C(c1ccccc1)N(CCO)Cc1cc2cc3c(cc2[nH]c1=O)OCCO3	–	inconclusive: 0.517 µM [activator, full curve]
CN(C(=O)Cn1nc(C(=O)O)c2ccccc2c1=O)C1(C#N)CCCCC1	–	inconclusive: 13 µM [activator, partial curve]
COc1ccc2c(c1)C(=O)N(c1ccc(C)cc1C)C(=O)C2(C)C	inconclusive: -17.3%	–
COc1ccc(CNC(=O)Cn2nc(C(F)(F)F)cc2C)cc1	inconclusive: -14.9%	–
CCOc1ccc(N2C(=O)CC(NCC#N)C2=O)cc1 (centres undefined)	inconclusive: -37.8%	–
CC(=O)c1ccc(NC(=O)/C(Cl)=C/c2ccccc2)cc1	inconclusive: 8.15%	–
Cc1ccc(C(=O)OC2CCCN(C)C2)cc1 (centres undefined)	inconclusive: 29.1%	–
Cc1cc(C)nc(NC(=O)/C=C/c2ccc3c(c2)OCO3)c1	inconclusive: 1.08%	–
O=C(CC(CC(=O)c1ccccc1)C(=O)O)c1ccccc1	–	inconclusive: 5.8 µM [falling, single point]
CC1CN(C(=O)COC(=O)c2ccc(Cl)c(N)c2)CC(C)O1 (centres undefined)	inconclusive: -13.2%	–
Cc1cc(C)cc(Oc2ccccc2CO)c1	inconclusive: -6.47%	–
Cc1nc(SCC(=O)Nc2ccc3c(c2)OCCO3)c2oc3ccccc3c2n1	inconclusive: 12.9%	–
Cc1ccc(-n2c(N)cc(=O)nc2SCC(=O)N2CCN(c3ccccc3)CC2)cc1C	–	inconclusive: 16.4 µM [activator, partial curve]
CCOc1ccc(S(=O)(=O)N2CCOCC2)cc1[N+](=O)[O-]	inconclusive: 7.19%	–
CCN(CC)CCCNC(=O)CCn1nc(-c2ccc(Cl)cc2)ccc1=O	inconclusive: 13.7%	–
O=[N+]([O-])c1ccccc1COc1ccc(Cl)c2cccnc12	inconclusive: 19.9%	–
COc1cc(/C=C/C(=O)NCCc2ccc(S(N)(=O)=O)cc2)ccc1OCC#N	inconclusive: 20.3%	–
CCn1c(SCC(=O)Nc2ccc(NC(C)=O)cc2)nnc1C1CC1	–	inconclusive: 0.164 µM [activator, full curve, poor fit]
CCCCC(=O)NC(c1ccccc1OC)c1ccc2cccnc2c1O (centres undefined)	inactive: -21.7%	–
COc1ccc(-c2oc3ncn4nc(COc5ccccc5)nc4c3c2-c2ccc(OC)cc2)cc1	inconclusive: 18.5%	–
COc1cc(/C=N/NC(=S)Nc2cccc(Cl)c2C)ccc1OCC(=O)N1CC(C)OC(C)C1 (centres undefined)	–	inconclusive: 29.1 µM [falling, single point]
COc1ccc(C(CNC(=S)NCc2ccccc2)N2CCCC2)cc1 (centres undefined)	inconclusive: 30.2%	–
O=C(C1CC=CCC1)N1CCN(C(=O)C2CC=CCC2)CC1 (centres undefined)	inconclusive: 5.96%	–
COc1cc(CC(NC(C)=O)C(=O)NC2CCN(C(=O)Nc3ccc(C)cc3)CC2)cc(OC)c1 (centres undefined)	–	inconclusive: 0.146 µM [activator, full curve]

Compound	lipid storage change, negative = inhibition	Potency
O=C(CN(C(=O)CCC(=O)Nc1ccccn1)C1CCCC1)NCc1ccc(F)cc1	–	inconclusive: 29.1 µM [falling, single point]
Cc1cc(C)c2ccc(=S)[nH]c2n1	inconclusive: 30.6%	–
Cc1cc(=O)c(C(=O)O)nn1-c1ccc(Cl)cc1	inconclusive: 0.982%	–
CC1CCCCN1C(=S)NC(=O)c1cccs1 (centres undefined)	–	inconclusive: 0.82 µM [falling, full curve]
COc1cccc(OCc2cc(C(=O)NCCc3cccc(C)n3)no2)c1	inconclusive: -100%	–
Cc1ccc(/C=C/C(=O)c2ccc(O)cc2)cc1	inconclusive: -10.4%	–
CN1C(=O)C(CCC(=O)O)NC1=S (centres undefined)	inconclusive: -9.29%	–
COc1cc(/C=N/NC(=O)c2ccncc2)c([N+](=O)[O-])cc1OC	inconclusive: 15.5%	–
COc1ccc(-c2csc(NC(=O)CSCc3c(C)noc3C)n2)c(OC)c1	inconclusive: -38.7%	–
CC1(C)CC2CC(C)(CN2S(=O)(=O)c2cccc(C(N)=O)c2)C1 (centres undefined)	inconclusive: 13.3%	–
Cc1nc(NC(=O)c2ccccc2)sc1-c1csc(Nc2ccc(C(=O)O)cc2)n1	inconclusive: -55.7%	–
CCCC(C)C(=O)Nc1ccc(S(=O)(=O)N2CCCC2)cc1 (centres undefined)	–	inconclusive: 10.3 µM [falling, partial curve]
COCCn1c(SCC(=O)Nc2nnc(C)s2)nnc1-c1ccco1	inconclusive: 36.8%	–
Cc1cc(C)n(CC(=O)Nc2ccc3c(c2)OCO3)c(=O)c1C#N	inconclusive: -0.601%	–
O=C(COC(=O)c1ccccc1O)NNC(=O)c1ccc(Br)cc1	inconclusive	–
O=C(Nc1ccc(F)cc1)c1ccc2c(=O)n3c(nc2c1)CCCCC3	–	inconclusive: 14.6 µM [falling, single point]
COc1ccc(NC(=O)CSc2ccc(-c3ccco3)nn2)cc1	inconclusive: 28.4%	–
CC12C(=O)N(Cc3ccco3)C(=O)C1C1c3ccccc3C2c2ccccc21 (centres undefined)	inconclusive: 84.2%	–
CCOc1ncccc1C(=O)N1CCN(C(c2ccccc2)c2ccccc2)CC1	inconclusive: 14.9%	–
Cc1nc2sc(C(c3ccccc3)N3CC(C)OC(C)C3)c(O)n2n1 (centres undefined)	inconclusive: -5.57%	–
COc1ccc(COCC(O)CN2CCC(C(N)=O)CC2)cc1 (centres undefined)	–	inconclusive: 1.03 µM [falling, full curve, poor fit]
O=C(NCc1ccccn1)c1cnc2sccn2c1=O	inconclusive: 4.31%	–
CCCCn1c(N)c(N(CCC(C)C)C(=O)c2[nH]c(C)c(C(=O)OCC)c2C)c(=O)[nH]c1=O	inconclusive	–
CC1CCc2[nH]c3ccc(C(=O)N(C)CC(=O)Nc4ccccc4Cl)cc3c2C1 (centres undefined)	–	inconclusive: 0.231 µM [activator, full curve, poor fit]
Cc1noc(C)c1S(=O)(=O)N1CCCC(C(=O)c2cccc(OC(C)C)c2)C1 (centres undefined)	inconclusive: 16.8%	–

Retrieved by structure from the list above, six records:
Compound	lipid storage change, negative = inhibition	Potency
CCCC(C)C(=O)Nc1ccc(S(=O)(=O)N2CCCC2)cc1 (centres undefined)	–	inconclusive: 10.3 µM [falling, partial curve]
CCCCn1c(N)c(N(CCC(C)C)C(=O)c2[nH]c(C)c(C(=O)OCC)c2C)c(=O)[nH]c1=O	inconclusive	–
O=C(NCc1ccccn1)c1cnc2sccn2c1=O	inconclusive: 4.31%	–
Cc1cc(C)n(CC(=O)Nc2ccc3c(c2)OCO3)c(=O)c1C#N	inconclusive: -0.601%	–
Cc1noc(C)c1S(=O)(=O)N1CCCC(C(=O)c2cccc(OC(C)C)c2)C1 (centres undefined)	inconclusive: 16.8%	–
COc1ccc(-c2csc(NC(=O)CSCc3c(C)noc3C)n2)c(OC)c1	inconclusive: -38.7%	–
